Measurements published in PubChem BioAssay AID212 (DTP/NCI, 2004).
The list does not hold the whole screen: it is rich in T/C values a quarter to a half above the control, in often repeated tests (any T/C) and in doses without a T/C. Other doses and runs of a compound stand elsewhere. T/C gives the treated animals as a percentage of the vehicle group. Schedule codes are those of the source, taken here to give the interval after Q, in days (D) or hours (H), and the number of doses after X. Some T/C values are followed by the survivors on the day toxicity was checked, most often the fifth; without a count, all were alive then. Some doses were run more than once; the results are listed from low to high. Some doses have a count of surviving animals in place of a T/C: the source holds a T/C of zero for them, seemingly a mark for toxic or unscored doses. Some survivor counts are full or nearly so, which does not show that the dose was tolerated: the source hardly ever lists a survival T/C far under the control, and the zero likely stands for such cases as well. Counts of survivors are from the toxicity check (mostly the fifth day) where no day follows; animals may have died later. For survival time, this PubChem deposit counts one and a half times the control or more as active, and values a quarter to a half above the control carry no call in these data; other NCI protocols may use other cut-offs.

Tested on: BDF1 mice, colon carcinoma 38 sc, T/C %
Assay: NCI In Vivo Anticancer Drug Screen. Data for tumor model Colon Carcinoma 38 (subcutaneous) in B6D2F1 (BDF1) mice
Summary of the method: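 Transplantable tumor in mice; compound-treated vs vehicle-dosed controls. Measured survival or tumor size; value = T ÷ C.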

[1] = T/C endpoint: median tumor weight (est.), dose: 25.0 mg/kg/injection, schedule: Q07DX002 (ip), vehicle: saline, evaluated on day 20, higher T/C = larger tumour
[2] = T/C endpoint: median survival time, dose: 400.0 mg/kg/injection, schedule: Q01DX008 (oral), vehicle: saline with Tween-80, higher T/C = longer survival

With `C=C1CC2(OC1=O)C(=O)N(C)c1ccc(I)cc12` (centres undefined) the T/C [1] was 126 % of control and the survivor count (T/C endpoint: median tumor weight (est.), dose: 200.0 mg/kg/injection, schedule: Q07DX002 (ip), vehicle: saline, higher T/C = larger tumour) was 5 of 10 on day 20.
In the case of `Nc1ccc2c(c1)CN1C(=O)c3ccccc3C1=N2`, the T/C (T/C endpoint: median survival time, dose: 100.0 mg/kg/injection, schedule: Q01DX008 (oral), vehicle: saline with Tween-80, higher T/C = longer survival) is reported as 141 % of control, the T/C (T/C endpoint: median survival time, dose: 200.0 mg/kg/injection, schedule: Q01DX008 (oral), vehicle: saline with Tween-80, higher T/C = longer survival) is reported as 141 % of control and the T/C [2] is reported as 141 % of control [7 of 10 alive on day 21]. For the same compound, the survivor count [2] was 9 of 10 on day 21, the T/C (T/C endpoint: median survival time, dose: 600.0 mg/kg/injection, schedule: Q07DX002 (oral), vehicle: saline with Tween-80, higher T/C = longer survival) was 141 % of control and the T/C (T/C endpoint: median survival time, dose: 800.0 mg/kg/injection, schedule: Q07DX002 (oral), vehicle: saline with Tween-80, higher T/C = longer survival) was 141 % of control. The T/C (T/C endpoint: median survival time, dose: 1000.0 mg/kg/injection, schedule: Q07DX002 (oral), vehicle: saline with Tween-80, higher T/C = longer survival) was 141 % of control, the T/C (T/C endpoint: median tumor weight (est.), dose: 25.0 mg/kg/injection, schedule: Q07DX002 (ip), vehicle: saline with Tween-80, evaluated on day 20, higher T/C = larger tumour) was 20, 37 [9 of 10 alive on day 20], 53, 72, 76, 90, 94 % of control and the T/C (T/C endpoint: median tumor weight (est.), dose: 50.0 mg/kg/injection, schedule: Q07DX002 (ip), vehicle: saline with Tween-80, evaluated on day 20, higher T/C = larger tumour) was 27, 32, 52, 60, 64, 65, 83, 88 % of control. The T/C (T/C endpoint: median tumor weight (est.), dose: 100.0 mg/kg/injection, schedule: Q07DX002 (ip), vehicle: saline with Tween-80, evaluated on day 20, higher T/C = larger tumour) was 17, 23, 24, 25, 44, 50, 60 % of control, the survivor count (T/C endpoint: median tumor weight (est.), dose: 200.0 mg/kg/injection, schedule: Q07DX002 (ip), vehicle: other, higher T/C = larger tumour) was 1 of 10 on day 20 and the T/C (T/C endpoint: median tumor weight (est.), dose: 200.0 mg/kg/injection, schedule: Q07DX002 (ip), vehicle: saline with Tween-80, evaluated on day 20, higher T/C = larger tumour) was 3, 3 [9 of 10 alive on day 20], 4, 8, 19, 53 % of control. The survivor count (T/C endpoint: median tumor weight (est.), dose: 400.0 mg/kg/injection, schedule: Q07DX002 (ip), vehicle: other, higher T/C = larger tumour) was 0 of 8 on day 20 and 6 of 10 on day 20, the T/C (T/C endpoint: median tumor weight (est.), dose: 400.0 mg/kg/injection, schedule: Q07DX002 (ip), vehicle: saline with Tween-80, evaluated on day 20, higher T/C = larger tumour) was 26 % of control [8 of 10 alive on day 20] and the survivor count (T/C endpoint: median tumor weight (est.), dose: 400.0 mg/kg/injection, schedule: Q07DX002 (ip), vehicle: saline with Tween-80, higher T/C = larger tumour) was 1 of 10 on day 20, 2 of 10 on day 20, 5 of 10 on day 20, 6 of 10 on day 20. The survivor count (T/C endpoint: median tumor weight change, dose: 237.4 mg/kg/injection, schedule: Q01DX009 (oral), vehicle: saline with Tween-80, higher T/C = larger tumour) was 5 of 10 on day 20, the survivor count (T/C endpoint: median tumor weight change, dose: 355.9 mg/kg/injection, schedule: Q01DX009 (oral), vehicle: saline with Tween-80, higher T/C = larger tumour) was 0 of 10 on day 20 and the survivor count (T/C endpoint: median tumor weight change, dose: 533.6 mg/kg/injection, schedule: Q01DX005 (oral), vehicle: saline with Tween-80, higher T/C = larger tumour) was 3 of 10 on day 20.
For `Nc1cc2c(c[n+](CCCCCCCC[n+]3cc4c5ccccc5c(N)cc4c4ccccc43)c3ccccc23)c2ccccc12`, the T/C (T/C endpoint: median tumor weight (est.), dose: 1.88 mg/kg/injection, schedule: Q07DX002 (ip), vehicle: water, evaluated on day 20, higher T/C = larger tumour) was 140 % of control [9 of 10 alive] and the T/C (T/C endpoint: median tumor weight (est.), dose: 3.75 mg/kg/injection, schedule: Q07DX002 (ip), vehicle: water, evaluated on day 20, higher T/C = larger tumour) was 141 % of control.
With `COC(OC(CO)C(O)S(=O)(=O)O)C(O)S(=O)(=O)O` (centres undefined) the T/C (T/C endpoint: median tumor weight (est.), dose: 12.5 mg/kg/injection, schedule: Q07DX002 (ip), vehicle: saline, evaluated on day 20, higher T/C = larger tumour) was 132 % of control and the T/C [1] was 135 % of control.
For `O=C(O)c1ccc(C(=O)O)c(C(=O)O)c1.[NH-]C1CCCCC1[NH-].[Pt+2]`, the survivor count (T/C endpoint: median tumor weight (est.), dose: 50.0 mg/kg/injection, schedule: Q07DX002 (ip), vehicle: sodium bicarbonate, higher T/C = larger tumour) was 0 of 10 on day 20 and 4 of 10 on day 20, the survivor count (T/C endpoint: median tumor weight (est.), dose: 75.0 mg/kg/injection, schedule: Q07DX002 (ip), vehicle: sodium bicarbonate, higher T/C = larger tumour) was 0 of 10 on day 20 and the survivor count (T/C endpoint: median tumor weight (est.), dose: 115.0 mg/kg/injection, schedule: Q07DX002 (ip), vehicle: sodium bicarbonate, higher T/C = larger tumour) was 0 of 10 on day 20.
In the case of `Cn1c(N)c(C(=O)/C=C/c2ccccc2)c(=O)n(C)c1=O`, the T/C (T/C endpoint: median tumor weight (est.), dose: 12.5 mg/kg/injection, schedule: Q07DX002 (ip), vehicle: Klucel (hydroxypropylcellulose) (HPC), evaluated on day 20, higher T/C = larger tumour) is reported as 125 % of control [9 of 10 alive] and the T/C (T/C endpoint: median tumor weight (est.), dose: 200.0 mg/kg/injection, schedule: Q07DX002 (ip), vehicle: Klucel (hydroxypropylcellulose) (HPC), evaluated on day 20, higher T/C = larger tumour) is reported as 127 % of control.
